# Laboratory results: PubChem BioAssay AID1347075 (National Center for Advancing Translational Sciences (NCATS), 2019)
# Screen size: about 400,000 compounds; about 5,500 (1.4%) were called active. The inconclusive results got no clear call from the source; some entries with a clear call stand among them for comparison. Calls follow the shape of the dose curve; as a rule, active = well fitted cell-killing curve with a large enough effect; inconclusive = small, poorly fitted or top-dose-only effect, or effect the other way; inactive = flat fitted curve, though single readings scatter. Potencies of inconclusive entries are doubtful fits and often do not repeat.
# Test: qHTS assay for MDR1-selective chemotherapeutics: Primary screen using the parental adenocarcinoma cell KB-3-1; also: nearly all actives have a fitted effect of over 60% in size
# Conditions: KB-3-1 viability, CellTiter-Glo ATP luminescence, 72 h; activity change, negative = cytotoxic: at 46.1 µM (top of the series)
# Summary of the method: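 KB-3-1 parental drug-naive adenocarcinoma cells in DMEM/10% FBS, incubated 72 h at 37 C with pin-transferred compounds across a concentration series. Viability by CellTiter-Glo luminescence; concentration-response curves fitted after normalization.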
# % is scaled to controls: 0 for no effect and ±100 for the full control effect; potency is read from the fitted curve at half-maximal effect.
SMILES,Potency,"activity change, negative = cytotoxic"
Cc1ccc(-c2csc(C3C(N)=NC(S)=C(C#N)C34CCCCC4)n2)cc1 (stereo not given),"inconclusive: 29.1 µM [cytotoxic, single point]",
O=[N+]([O-])C(=C1Nc2ccccc2N1)C(Cl)=C(Cl)Cl,"inconclusive: 16.4 µM [cytotoxic, partial curve, poor fit]",
CC1C(=O)C(C)C(c2ccccc2F)NC1c1ccccc1F (stereo not given),,inconclusive: -7.3%
Cc1ccc(N2C(=O)/C(=C\c3ccc(C(C)C)cc3)N=C2SC2CCOC2=O)cc1 (stereo not given),,inactive: -14.9%
CCOC(=O)C1=NN(c2ccccc2)C(c2ccccc2)CC1=O (stereo not given),"inconclusive: 29.1 µM [cytotoxic, single point]",
Cc1ccc2c(/C=C/c3ccc(N(C)C)cc3)c(C)cnc2c1,,inconclusive: -30.8% [cytotoxic]
CN(C)S(=O)(=O)c1cccc(NC(=O)COC(=O)c2ccc([N+](=O)[O-])o2)c1,"inconclusive: 10.3 µM [rising, partial curve]",
Clc1cccc(-c2nc(-c3ccccn3)no2)c1,"inconclusive: 29.1 µM [cytotoxic, single point]",
CC(C)=CCC[C@](C)(O)C1CC[C@]2(C)C1[C@H](O)CC1[C@@]3(C)CC[C@H](O[C@@H]4O[C@H](CO)[C@@H](O)[C@H](O)[C@H]4O[C@@H]4O[C@H](CO)[C@@H](O)[C@H](O)[C@H]4O)C(C)(C)C3CC[C@]12C (stereo not given in full),"inconclusive: 29.1 µM [rising, single point]",
O=[S+]([O-])([O-])c1ccc2c(c1)cc([S+](=O)([O-])[O-])c1nn(-c3ccc(/C=C/c4ccc(-n5nc6c([S+](=O)([O-])[O-])cc7cc([S+](=O)([O-])[O-])ccc7c6n5)cc4[S+](=O)([O-])[O-])c([S+](=O)([O-])[O-])c3)nc12,"inconclusive: 8.2 µM [rising, partial curve, poor fit]",
CC(C)CC1Nc2ncnc(N3CCN(c4ccccc4)CC3)c2N(Cc2ccc(Br)cc2)C1=O (stereo not given),"inconclusive: 29.1 µM [cytotoxic, single point]",
C=CC[C@@H](CC(=O)N(CCO)Cc1ccccc1)C(=O)NC[C@@H](OC(=O)[C@@H](CC=C)Cc1ccc(F)cc1)c1ccccc1,"inconclusive: 16.4 µM [cytotoxic, single point]",
Cc1c(Cl)cccc1NC(=O)CSc1ncnc2c1cnn2CCO,,inactive: -0.824%
O=C1C2CCCN2C(c2ccc(F)cc2)N1c1ccc(Cl)cc1 (stereo not given),"inconclusive: 29.1 µM [cytotoxic, single point]",
COc1ccc(Cl)cc1N1CC(c2nc3ccccc3[nH]2)CC1=O (stereo not given),"inconclusive: 1.3 µM [rising, full curve]",

# Some of the entries above in another layout.
SMILES | Potency | activity change, negative = cytotoxic
O=[N+]([O-])C(=C1Nc2ccccc2N1)C(Cl)=C(Cl)Cl | inconclusive: 16.4 µM [cytotoxic, partial curve, poor fit] | 
CC1C(=O)C(C)C(c2ccccc2F)NC1c1ccccc1F (stereo not given) |  | inconclusive: -7.3%
